Assay results published in the supplement of paper PMC10849652.
Some of the results follow.

Chains of the proteins cited; added tags and fusions are not shown. Lines headed by an entry give the natural chain unless they say otherwise; changes in a name come on top.
UniProt A6NKF1: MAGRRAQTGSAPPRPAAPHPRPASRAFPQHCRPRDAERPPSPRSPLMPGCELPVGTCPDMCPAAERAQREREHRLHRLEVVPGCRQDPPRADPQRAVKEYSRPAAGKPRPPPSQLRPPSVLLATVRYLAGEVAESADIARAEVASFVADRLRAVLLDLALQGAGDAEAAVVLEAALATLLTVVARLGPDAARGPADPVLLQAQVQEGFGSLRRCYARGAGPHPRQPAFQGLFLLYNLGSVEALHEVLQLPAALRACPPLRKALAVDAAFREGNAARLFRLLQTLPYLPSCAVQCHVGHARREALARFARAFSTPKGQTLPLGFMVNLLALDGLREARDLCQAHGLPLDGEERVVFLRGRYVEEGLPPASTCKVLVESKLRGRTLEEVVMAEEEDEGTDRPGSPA
UniProt P63302, whole entry, looked up: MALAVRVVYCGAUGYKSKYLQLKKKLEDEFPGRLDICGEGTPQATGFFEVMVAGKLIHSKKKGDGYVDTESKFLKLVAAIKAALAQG
UniProt Q6UWP8: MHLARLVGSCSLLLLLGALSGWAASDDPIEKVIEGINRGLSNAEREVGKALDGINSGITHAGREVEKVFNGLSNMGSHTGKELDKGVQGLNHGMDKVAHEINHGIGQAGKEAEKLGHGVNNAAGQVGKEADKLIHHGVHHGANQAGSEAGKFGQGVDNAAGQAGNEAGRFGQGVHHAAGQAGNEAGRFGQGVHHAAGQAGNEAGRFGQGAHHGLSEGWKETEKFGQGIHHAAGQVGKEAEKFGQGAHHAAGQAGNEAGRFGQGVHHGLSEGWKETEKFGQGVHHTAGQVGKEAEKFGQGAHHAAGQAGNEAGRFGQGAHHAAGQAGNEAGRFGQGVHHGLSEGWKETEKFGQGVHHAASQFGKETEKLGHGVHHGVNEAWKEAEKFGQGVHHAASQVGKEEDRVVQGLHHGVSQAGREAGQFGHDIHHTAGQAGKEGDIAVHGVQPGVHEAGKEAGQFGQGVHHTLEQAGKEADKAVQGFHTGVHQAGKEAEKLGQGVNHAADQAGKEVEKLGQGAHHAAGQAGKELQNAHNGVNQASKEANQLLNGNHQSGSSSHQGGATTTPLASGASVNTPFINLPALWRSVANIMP
UniProt O15027: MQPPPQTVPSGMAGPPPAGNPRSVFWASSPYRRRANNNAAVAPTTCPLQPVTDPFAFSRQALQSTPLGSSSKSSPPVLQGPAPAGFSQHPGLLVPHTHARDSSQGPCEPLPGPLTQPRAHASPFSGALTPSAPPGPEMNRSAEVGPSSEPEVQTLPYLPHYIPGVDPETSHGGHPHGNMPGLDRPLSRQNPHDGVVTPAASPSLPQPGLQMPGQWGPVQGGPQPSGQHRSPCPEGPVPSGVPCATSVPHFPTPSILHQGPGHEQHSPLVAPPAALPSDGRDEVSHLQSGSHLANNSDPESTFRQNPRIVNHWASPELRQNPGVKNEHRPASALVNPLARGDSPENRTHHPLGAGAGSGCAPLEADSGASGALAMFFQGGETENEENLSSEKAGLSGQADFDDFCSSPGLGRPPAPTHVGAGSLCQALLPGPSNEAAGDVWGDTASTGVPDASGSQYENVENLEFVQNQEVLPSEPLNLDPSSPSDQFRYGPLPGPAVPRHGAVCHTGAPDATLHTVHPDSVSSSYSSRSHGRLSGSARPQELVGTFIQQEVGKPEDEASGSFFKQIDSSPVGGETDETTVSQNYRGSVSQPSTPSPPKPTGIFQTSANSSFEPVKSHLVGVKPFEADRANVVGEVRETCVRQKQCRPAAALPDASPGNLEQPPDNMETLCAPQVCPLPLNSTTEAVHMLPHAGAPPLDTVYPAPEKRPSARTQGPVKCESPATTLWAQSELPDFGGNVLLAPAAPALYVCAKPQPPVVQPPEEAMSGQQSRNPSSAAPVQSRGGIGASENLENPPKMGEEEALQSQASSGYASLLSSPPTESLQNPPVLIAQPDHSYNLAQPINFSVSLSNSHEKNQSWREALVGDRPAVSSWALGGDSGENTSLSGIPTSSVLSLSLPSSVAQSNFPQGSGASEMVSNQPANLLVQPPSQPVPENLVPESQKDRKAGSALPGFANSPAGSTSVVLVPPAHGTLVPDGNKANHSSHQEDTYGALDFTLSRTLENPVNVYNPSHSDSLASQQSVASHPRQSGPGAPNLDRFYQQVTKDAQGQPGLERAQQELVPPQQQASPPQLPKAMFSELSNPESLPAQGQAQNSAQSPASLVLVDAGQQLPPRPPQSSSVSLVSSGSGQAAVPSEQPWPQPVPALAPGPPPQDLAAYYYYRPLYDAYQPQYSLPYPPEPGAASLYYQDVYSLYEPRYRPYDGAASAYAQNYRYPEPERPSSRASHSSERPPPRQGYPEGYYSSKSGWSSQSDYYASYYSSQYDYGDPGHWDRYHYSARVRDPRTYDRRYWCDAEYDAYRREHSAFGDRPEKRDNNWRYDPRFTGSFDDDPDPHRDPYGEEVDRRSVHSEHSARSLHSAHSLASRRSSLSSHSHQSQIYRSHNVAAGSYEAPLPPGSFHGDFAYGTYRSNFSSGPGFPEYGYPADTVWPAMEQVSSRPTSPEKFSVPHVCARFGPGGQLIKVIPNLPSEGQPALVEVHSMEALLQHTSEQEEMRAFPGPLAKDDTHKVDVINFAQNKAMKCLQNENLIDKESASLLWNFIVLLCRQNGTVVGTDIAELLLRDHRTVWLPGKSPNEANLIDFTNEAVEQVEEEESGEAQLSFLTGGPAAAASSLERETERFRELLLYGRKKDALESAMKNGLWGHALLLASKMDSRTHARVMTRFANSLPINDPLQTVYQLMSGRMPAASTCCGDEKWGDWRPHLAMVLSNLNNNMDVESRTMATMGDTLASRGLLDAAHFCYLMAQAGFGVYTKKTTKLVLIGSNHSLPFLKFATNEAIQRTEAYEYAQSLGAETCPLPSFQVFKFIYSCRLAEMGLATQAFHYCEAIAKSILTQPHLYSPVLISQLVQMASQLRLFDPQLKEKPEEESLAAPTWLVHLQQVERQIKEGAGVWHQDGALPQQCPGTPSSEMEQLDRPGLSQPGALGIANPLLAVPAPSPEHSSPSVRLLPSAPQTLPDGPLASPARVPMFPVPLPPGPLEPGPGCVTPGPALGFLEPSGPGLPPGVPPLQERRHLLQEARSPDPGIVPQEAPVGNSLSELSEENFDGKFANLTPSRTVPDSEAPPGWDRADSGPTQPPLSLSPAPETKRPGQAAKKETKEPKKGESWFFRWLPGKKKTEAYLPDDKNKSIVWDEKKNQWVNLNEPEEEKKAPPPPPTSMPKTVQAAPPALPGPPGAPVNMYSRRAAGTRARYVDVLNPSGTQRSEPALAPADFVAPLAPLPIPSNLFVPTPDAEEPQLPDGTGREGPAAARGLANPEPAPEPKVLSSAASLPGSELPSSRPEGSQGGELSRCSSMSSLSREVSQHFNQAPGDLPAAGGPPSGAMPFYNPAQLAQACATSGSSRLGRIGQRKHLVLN
UniProt Q9HC62: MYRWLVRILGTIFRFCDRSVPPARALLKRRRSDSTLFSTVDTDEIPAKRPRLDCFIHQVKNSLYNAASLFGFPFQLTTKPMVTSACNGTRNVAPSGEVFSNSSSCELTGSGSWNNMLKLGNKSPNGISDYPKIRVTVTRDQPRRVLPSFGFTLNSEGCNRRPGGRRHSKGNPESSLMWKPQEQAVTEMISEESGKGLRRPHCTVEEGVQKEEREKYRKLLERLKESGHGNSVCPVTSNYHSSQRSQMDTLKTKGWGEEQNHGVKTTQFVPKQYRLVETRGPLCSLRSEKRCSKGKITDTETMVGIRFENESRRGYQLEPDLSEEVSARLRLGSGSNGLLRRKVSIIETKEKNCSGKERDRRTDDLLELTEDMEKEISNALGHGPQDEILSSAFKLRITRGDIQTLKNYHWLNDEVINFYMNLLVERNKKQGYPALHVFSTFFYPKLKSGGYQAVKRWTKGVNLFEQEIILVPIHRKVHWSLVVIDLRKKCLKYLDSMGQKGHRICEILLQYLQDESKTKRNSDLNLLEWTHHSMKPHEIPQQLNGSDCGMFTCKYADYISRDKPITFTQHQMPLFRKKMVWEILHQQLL
UniProt P60896: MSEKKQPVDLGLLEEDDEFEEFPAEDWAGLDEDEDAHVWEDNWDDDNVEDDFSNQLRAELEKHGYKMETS
UniProt Q5K651: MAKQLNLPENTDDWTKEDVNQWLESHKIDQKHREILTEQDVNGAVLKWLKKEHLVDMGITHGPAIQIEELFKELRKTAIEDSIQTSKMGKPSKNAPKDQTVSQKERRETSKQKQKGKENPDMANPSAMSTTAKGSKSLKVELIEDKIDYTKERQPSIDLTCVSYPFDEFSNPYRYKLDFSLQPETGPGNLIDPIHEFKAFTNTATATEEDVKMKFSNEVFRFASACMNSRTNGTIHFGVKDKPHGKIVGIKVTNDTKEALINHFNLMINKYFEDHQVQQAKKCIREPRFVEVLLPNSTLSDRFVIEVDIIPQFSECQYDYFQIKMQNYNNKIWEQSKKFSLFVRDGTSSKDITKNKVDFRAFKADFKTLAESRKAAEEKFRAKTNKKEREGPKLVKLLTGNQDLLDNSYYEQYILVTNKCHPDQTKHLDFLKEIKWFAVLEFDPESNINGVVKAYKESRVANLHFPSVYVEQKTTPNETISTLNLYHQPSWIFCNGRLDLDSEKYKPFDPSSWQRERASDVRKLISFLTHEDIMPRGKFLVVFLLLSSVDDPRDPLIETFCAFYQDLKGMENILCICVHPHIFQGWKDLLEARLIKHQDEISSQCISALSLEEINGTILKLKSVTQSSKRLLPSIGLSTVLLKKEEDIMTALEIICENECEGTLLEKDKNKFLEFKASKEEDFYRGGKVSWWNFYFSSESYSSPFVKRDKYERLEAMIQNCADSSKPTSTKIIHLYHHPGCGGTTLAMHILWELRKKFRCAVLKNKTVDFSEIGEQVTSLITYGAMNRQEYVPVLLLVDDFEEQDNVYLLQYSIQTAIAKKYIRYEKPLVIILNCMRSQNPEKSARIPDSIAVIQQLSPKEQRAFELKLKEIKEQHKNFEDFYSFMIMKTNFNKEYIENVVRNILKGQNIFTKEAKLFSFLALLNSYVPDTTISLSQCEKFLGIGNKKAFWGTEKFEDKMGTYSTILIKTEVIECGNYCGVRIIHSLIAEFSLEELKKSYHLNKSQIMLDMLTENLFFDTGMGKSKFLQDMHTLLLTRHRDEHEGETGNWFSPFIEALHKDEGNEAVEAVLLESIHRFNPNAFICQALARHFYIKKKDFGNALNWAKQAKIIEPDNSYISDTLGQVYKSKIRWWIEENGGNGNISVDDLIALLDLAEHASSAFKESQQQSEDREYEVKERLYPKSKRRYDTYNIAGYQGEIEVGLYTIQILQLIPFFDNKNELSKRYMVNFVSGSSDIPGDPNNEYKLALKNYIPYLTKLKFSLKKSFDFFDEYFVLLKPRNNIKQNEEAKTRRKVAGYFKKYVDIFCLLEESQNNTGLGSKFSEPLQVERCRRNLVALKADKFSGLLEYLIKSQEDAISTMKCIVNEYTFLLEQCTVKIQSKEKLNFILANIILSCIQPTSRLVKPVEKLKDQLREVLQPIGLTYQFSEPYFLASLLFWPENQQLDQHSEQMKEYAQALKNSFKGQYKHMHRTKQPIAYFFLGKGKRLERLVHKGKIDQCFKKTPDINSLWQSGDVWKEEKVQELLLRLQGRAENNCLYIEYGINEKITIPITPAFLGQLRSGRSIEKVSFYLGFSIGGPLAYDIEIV
UniProt Q96IW7: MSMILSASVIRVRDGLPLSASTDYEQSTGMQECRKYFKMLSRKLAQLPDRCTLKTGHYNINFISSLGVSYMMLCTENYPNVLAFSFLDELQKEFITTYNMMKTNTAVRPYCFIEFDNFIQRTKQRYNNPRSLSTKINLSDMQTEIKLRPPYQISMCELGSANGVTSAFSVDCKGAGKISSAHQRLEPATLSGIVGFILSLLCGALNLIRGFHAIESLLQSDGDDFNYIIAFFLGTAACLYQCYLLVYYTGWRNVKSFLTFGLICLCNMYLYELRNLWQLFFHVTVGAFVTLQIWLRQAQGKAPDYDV

Columns and labels:
Test in all cases: log2 fold change, soluble protein after heating vs DMSO (PISA); higher = thermal stabilisation; K562 lysate, 10 uM; active = over 0.2 and 3.5 SD of the protein, either way, in both replicates (recomputed)
[1] = compound: C1=CC2=NC=CN=C2C=C1/C=C/3\C(=O)NC(=O)S3
Outline: (§1)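 Dounce homogenisation of K562 pellets in PBS pH 7.4 with 1 mM MgCl2 produced a crude extract, used at 1 mg/mL protein. Exposure to 10 μM compound lasted 30 min, and aliquots were then heated for 3 min across 48°C-58°C, pooled and brought to 0.5% NP-40 at 4°C. The supernatant after 21,000xg for 90 min was quantified by TMTpro 16plex LC-MS/MS with channel sums equalised. Duplicate values are given as log-two fold change in thermal stability relative to solvent controls.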

ibrutinib = compound: C=CC(=O)N1CCC[C@@H](n2nc(-c3ccc(Oc4ccccc4)cc3)c3c(N)ncnc32)C1 [ibrutinib]
Outline: as §1

[2] = compound: CC1=C(C(CC(=O)N1)C2=CC=C(C=C2)C(F)(F)F)C(=O)NC3=C(C=C4C(=C3)C=NN4)F
Outline: as §1

[3] = compound: CC1=C(C=C(C=C1)NC(=O)C2=CC(=CC=C2)C(C)(C)C#N)NC3=CC4=C(C=C3)N=CN(C4=O)C
Outline: as §1

[4] = compound: C/C(=N\NC(=O)C1=CC(=CC=C1)S(=O)(=O)N2CCOCC2)/C3=C(C=CC(=C3)Cl)O
Outline: as §1

[5] = compound: C1=CC2=C(C=CC(=C2)/C=C\3/C(=O)NC(=NCC4=CC=CS4)S3)N=C1
Outline: as §1

[6] = compound: C1=CC=C2C(=C1)C3=NNC4=CC=CC(=C43)C2=O
Outline: as §1

[7] = compound: C1=CC=C(C=C1)C2=NC(=C(N2)C3=CC=NC=C3)C4=CC(=C(C=C4)Cl)O
Outline: as §1

IRAK-1-4 Inhibitor I = compound: C1COCCN1CCN2C3=CC=CC=C3N=C2NC(=O)C4=CC(=CC=C4)[N+](=O)[O-] [IRAK-1-4 Inhibitor I]
Outline: as §1

[8] = compound: CC(=O)c1cnc2ccc(-c3cc(Cl)c(O)c(Cl)c3)nc2c1N[C@H]1CC[C@H](CN(C)C)CC1
Outline: as §1

ralimetinib = compound: CC(C)(C)Cn1c(N)nc2ccc(-c3[nH]c(C(C)(C)C)nc3-c3ccc(F)cc3)nc21 [ralimetinib]
Outline: as §1

[9] = compound: CC(C)(O)CC(=O)NCCn1ccc2ncnc(Nc3ccc(Oc4cccc(C(F)(F)F)c4)c(Cl)c3)c21
Outline: as §1

[10] = compound: CC1=C(C=C(C=C1)NC(=O)C2=CC(=CC=C2)N(C)C)NC(=O)C3=CC=C(C=C3)O
Outline: as §1

[11] = compound: CC1=CC=C(C=C1)SC2=C3C=C(SC3=CN=C2)C(=O)N
Outline: as §1

erlotinib = compound: C#Cc1cccc(Nc2ncnc3cc(OCCOC)c(OCCOC)cc23)c1 [erlotinib]
Outline: as §1

[12] = compound: C1=CC(=CC=C1C2=NC3=C(N2)C=C(C=C3)C(=O)N)OC4=CC=C(C=C4)Cl
Outline: as §1

[13] = compound: CC(C)C1=C2N=C(C=C(N2N=C1)NCC3=CC=CC=C3)NCCCCCCN
Outline: as §1

[14] = compound: CC1=C(C2=C(C=C1)C(=O)C3=CC=CC=C3N2CCCN)C
Outline: as §1

[15] = compound: C1CCN(C1)C(=O)NC2=CC=CC(=C2)NC3=NC=C(C(=N3)NCCC4=CN=CN4)Br
Outline: as §1

[16] = compound: C1CN(CCC1(CC2=CC=C(C=C2)Cl)N)C3=NC=NC4=C3C=CN4
Outline: as §1

Measured: log2 fold change

SAC3D1 (UniProt A6NKF1)
inactive: [1] 0.158 | ibrutinib 0.021 | [2] -0.031 | [3] 0.088

SDHB, A0A087WXX8
inactive: [4] -0.065 | [5] -0.073 | [6] 0.136 | [2] -0.069

SELENOW (UniProt P63302)
inactive: [7] 0.056 | IRAK-1-4 Inhibitor I -0.121 | [8] -0.01 | ralimetinib -0.087 | [9] -0.065 | [3] 0.048 | [10] 0.036 | [11] -0.044

Two neighbouring entries out of the list so far:
SDHB, A0A087WXX8
inactive: [4] -0.065 | [5] -0.073 | [6] 0.136 | [2] -0.069

SELENOW (UniProt P63302)
inactive: [7] 0.056 | IRAK-1-4 Inhibitor I -0.121 | [8] -0.01 | ralimetinib -0.087 | [9] -0.065 | [3] 0.048 | [10] 0.036 | [11] -0.044

Remaining list, next part.

SACS (UniProt Q9NZJ4)
inactive: [2] 0.02

SBSN (UniProt Q6UWP8)
inactive: erlotinib 0.458 | [12] -0.038 | [13] -0.085

SEC16A isoform 3 (UniProt O15027)
inactive: [7] 0.41 | IRAK-1-4 Inhibitor I 0.123 | ralimetinib -0.283 | [9] -0.122 | [14] -0.006 | [10] -0.023

SENP2 (UniProt Q9HC62)
inactive: [2] 0.043

SEM1 (UniProt P60896)
inactive: erlotinib -0.196 | [12] -0.103 | [13] -0.032

SAMD9 (UniProt Q5K651)
inactive: [7] -0.066 | [15] -0.106 | [16] 0.062 | IRAK-1-4 Inhibitor I 0.071 | [8] -0.171 | ralimetinib 0.006 | [9] 0.024 | [2] 0.033 | [3] 0.019 | [10] 0.079 | [11] 0.023

SEC22A (UniProt Q96IW7)
inactive: [1] -0.03 | [7] -0.032 | IRAK-1-4 Inhibitor I -0.166 | ibrutinib -0.017 | [8] -0.065 | ralimetinib -0.012 | [9] -0.041 | [2] -0.185 | [3] 0.02 | [10] 0.19 | [11] 0.121
